Assay results taken from patent US20220298254A1 (HUMMINGBIRD BIOSCIENCE HOLDINGS PTE, published 2022).
No constants are given. Whether binding was seen depends on the method and setting. Some binding calls cover weakened binding; strength is not graded here.

Biological target: RhCD47
Assay: ELISA, plate-coated rhesus macaque CD47, antibody titrated

B1: anti-CD47 clone 1-1-A1_BM IgG1 (antibody, V domains shown)
VH: QVQLQQSGPDLKKPGASVKVSCKVSGYTFTNYVIHWVRQKPGQGLEWMGYINPYNDGTKSNEKFKGKATLTSDKSSTSAYMELSSLTSEDTAVYYCASGGYYTMDYWGQGTSVTVSS
VL: DVVMTQTPLSLPVTLGDQASISCRSSQHLEYSNGYSYLHWYQQRPGQSPQLLIYKISNRFSGVPDRFSGSGSGTDFTLKISRVEAEDLGVYYCSQSTHVPYTFGGGTKLEIKR
In the case of B1, the binding is reported as “binds”.
